# According to the supplement of paper PMC12819154, “High-throughput peptide-centric local stability assay extends protein–ligand identification to membrane proteins, tissues and bacteria” (Nature Structural & Molecular Biology, 2025):
# Sequences of proteins named here, by UniProt entry; tags and fusion partners are left off. A change or cut given only in a name is not applied to a line headed by its entry.
# UniProt Q15904, whole entry: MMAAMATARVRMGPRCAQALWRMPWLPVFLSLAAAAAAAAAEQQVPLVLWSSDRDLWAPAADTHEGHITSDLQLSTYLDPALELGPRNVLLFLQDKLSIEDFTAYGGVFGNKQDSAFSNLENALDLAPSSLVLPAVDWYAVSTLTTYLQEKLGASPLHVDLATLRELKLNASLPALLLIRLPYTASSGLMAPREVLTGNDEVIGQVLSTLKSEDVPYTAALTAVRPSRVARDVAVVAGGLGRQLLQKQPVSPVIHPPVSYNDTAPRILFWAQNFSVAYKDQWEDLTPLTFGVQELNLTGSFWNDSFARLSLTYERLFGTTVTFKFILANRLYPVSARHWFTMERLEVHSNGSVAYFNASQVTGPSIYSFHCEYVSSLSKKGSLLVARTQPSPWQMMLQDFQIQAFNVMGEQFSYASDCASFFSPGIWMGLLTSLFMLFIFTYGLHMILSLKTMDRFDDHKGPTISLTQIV
# UniProt Q3L8U1: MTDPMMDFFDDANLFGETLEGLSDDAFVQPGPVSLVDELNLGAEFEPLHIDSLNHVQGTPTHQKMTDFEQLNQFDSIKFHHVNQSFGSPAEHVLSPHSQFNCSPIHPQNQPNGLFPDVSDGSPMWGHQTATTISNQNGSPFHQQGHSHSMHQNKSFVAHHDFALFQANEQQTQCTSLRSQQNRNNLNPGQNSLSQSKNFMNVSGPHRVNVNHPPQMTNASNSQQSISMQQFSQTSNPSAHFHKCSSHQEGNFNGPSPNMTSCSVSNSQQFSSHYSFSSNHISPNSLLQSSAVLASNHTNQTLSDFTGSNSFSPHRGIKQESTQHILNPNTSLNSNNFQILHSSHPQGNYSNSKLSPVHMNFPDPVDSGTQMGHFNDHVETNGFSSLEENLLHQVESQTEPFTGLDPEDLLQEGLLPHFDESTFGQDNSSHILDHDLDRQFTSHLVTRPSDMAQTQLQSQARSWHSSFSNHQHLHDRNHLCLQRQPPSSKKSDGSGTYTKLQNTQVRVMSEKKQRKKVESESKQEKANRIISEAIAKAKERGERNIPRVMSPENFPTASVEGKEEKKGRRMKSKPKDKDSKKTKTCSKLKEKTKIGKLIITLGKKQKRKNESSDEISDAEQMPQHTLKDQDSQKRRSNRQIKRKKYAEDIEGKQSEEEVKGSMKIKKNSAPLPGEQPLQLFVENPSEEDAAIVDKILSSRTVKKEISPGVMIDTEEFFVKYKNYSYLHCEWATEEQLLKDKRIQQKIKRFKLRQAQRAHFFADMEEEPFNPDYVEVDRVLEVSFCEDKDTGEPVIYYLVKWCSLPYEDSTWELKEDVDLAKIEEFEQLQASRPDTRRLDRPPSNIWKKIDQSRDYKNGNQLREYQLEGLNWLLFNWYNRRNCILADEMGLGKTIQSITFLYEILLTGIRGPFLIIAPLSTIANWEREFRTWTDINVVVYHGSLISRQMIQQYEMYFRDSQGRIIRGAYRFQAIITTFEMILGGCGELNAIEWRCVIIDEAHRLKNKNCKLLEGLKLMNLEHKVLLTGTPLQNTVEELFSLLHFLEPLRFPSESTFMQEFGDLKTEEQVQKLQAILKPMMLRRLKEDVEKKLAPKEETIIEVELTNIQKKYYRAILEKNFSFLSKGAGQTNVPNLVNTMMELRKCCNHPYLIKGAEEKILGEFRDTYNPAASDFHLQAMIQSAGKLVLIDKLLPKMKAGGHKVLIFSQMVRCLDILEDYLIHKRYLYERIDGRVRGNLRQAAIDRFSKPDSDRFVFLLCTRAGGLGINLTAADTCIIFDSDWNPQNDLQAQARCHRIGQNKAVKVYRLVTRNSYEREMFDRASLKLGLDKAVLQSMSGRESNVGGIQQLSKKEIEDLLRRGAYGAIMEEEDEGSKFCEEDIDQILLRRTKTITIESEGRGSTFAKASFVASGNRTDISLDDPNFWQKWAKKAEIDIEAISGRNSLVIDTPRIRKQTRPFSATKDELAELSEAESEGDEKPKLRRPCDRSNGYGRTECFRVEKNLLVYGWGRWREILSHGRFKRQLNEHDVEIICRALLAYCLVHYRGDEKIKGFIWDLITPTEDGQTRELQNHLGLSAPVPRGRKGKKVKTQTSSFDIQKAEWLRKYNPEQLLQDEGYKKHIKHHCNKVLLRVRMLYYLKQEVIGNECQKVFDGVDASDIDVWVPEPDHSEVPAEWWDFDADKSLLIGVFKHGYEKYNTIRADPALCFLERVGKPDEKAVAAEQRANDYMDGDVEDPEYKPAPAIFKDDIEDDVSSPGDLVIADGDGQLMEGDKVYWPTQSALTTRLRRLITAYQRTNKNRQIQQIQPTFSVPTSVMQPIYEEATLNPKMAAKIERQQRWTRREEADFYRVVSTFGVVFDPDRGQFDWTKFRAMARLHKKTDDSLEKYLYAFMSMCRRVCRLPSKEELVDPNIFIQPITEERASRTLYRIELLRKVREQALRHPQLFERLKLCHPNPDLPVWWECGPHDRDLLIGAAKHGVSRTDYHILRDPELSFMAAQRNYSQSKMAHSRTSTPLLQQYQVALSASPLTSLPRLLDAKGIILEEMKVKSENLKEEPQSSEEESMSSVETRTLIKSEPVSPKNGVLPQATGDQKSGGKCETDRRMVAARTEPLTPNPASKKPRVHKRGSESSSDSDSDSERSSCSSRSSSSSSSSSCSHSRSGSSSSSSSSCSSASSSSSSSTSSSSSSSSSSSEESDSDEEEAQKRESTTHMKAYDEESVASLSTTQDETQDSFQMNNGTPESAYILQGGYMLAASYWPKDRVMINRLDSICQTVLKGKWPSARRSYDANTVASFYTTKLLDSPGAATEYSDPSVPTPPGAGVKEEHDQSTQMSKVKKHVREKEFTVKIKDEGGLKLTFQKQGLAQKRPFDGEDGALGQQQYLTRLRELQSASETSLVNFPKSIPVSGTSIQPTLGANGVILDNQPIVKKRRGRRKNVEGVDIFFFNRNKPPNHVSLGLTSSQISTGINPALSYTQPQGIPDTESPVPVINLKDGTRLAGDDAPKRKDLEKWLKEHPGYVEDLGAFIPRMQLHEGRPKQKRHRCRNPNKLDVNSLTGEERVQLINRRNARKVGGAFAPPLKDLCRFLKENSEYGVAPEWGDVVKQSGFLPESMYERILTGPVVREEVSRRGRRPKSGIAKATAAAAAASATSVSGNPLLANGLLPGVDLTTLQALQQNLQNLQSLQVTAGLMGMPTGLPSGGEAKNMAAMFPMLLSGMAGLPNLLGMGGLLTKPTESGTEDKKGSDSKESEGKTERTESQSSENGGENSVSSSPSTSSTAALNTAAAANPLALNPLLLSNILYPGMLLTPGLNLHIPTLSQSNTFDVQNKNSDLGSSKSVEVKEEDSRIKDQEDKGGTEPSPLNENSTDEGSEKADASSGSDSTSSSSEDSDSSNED
# UniProt Q15345: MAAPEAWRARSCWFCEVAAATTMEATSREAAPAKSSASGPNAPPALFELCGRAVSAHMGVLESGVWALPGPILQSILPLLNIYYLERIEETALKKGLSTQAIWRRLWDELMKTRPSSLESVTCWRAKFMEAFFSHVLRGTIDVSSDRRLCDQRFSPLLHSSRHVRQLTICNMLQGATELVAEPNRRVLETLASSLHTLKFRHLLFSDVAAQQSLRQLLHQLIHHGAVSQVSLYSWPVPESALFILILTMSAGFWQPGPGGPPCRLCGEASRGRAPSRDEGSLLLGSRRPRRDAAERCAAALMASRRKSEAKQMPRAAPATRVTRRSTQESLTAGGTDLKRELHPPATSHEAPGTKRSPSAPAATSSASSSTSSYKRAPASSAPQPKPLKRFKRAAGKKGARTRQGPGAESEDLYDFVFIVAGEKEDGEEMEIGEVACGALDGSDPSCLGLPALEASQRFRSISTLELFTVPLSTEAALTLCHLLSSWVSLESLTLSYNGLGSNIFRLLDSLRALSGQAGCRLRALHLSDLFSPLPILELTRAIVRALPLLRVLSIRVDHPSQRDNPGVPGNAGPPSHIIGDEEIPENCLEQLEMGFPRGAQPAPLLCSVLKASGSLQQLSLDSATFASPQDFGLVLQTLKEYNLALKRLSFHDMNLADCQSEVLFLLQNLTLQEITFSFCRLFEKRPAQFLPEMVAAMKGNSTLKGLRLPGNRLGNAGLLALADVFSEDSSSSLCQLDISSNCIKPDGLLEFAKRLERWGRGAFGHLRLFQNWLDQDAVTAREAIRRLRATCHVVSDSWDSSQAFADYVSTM
# UniProt Q15208: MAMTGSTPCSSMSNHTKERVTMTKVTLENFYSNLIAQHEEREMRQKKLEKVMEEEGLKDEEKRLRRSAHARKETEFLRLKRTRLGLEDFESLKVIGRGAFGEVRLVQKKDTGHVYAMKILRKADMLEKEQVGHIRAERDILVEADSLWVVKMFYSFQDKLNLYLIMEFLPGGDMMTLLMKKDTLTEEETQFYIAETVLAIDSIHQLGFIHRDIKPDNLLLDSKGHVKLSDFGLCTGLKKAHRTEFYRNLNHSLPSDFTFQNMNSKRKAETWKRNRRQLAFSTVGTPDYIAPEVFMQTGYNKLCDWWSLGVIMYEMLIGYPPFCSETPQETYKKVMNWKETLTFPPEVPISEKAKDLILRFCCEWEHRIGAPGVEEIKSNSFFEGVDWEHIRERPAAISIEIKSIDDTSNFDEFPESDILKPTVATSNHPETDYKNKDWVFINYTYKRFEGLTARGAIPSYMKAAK
# UniProt Q15714: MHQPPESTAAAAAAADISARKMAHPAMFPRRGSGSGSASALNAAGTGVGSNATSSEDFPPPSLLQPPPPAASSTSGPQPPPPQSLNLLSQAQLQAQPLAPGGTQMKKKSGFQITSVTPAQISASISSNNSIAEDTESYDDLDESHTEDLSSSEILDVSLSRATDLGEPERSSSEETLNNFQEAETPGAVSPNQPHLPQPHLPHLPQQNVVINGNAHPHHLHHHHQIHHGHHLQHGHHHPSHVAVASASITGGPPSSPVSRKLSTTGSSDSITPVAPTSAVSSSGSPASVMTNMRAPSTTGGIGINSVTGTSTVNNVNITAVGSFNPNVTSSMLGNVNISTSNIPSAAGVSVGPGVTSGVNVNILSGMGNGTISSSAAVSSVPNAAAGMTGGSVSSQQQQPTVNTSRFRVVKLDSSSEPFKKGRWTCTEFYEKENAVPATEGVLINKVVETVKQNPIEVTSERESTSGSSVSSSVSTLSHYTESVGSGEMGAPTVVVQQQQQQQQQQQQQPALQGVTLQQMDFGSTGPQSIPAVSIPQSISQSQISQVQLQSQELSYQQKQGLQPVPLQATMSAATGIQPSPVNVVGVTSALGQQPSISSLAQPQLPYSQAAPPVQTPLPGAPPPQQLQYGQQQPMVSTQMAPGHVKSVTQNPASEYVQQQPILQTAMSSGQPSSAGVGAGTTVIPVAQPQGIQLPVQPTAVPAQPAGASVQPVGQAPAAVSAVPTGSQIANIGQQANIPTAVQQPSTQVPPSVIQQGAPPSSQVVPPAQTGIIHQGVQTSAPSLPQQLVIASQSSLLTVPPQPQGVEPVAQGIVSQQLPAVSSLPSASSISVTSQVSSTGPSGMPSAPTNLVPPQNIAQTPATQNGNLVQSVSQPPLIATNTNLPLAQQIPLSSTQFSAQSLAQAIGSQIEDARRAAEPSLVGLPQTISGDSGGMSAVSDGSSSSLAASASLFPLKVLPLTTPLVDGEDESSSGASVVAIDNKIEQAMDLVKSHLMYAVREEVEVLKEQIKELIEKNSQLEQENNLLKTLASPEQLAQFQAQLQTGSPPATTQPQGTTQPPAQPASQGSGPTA
# UniProt Q15293: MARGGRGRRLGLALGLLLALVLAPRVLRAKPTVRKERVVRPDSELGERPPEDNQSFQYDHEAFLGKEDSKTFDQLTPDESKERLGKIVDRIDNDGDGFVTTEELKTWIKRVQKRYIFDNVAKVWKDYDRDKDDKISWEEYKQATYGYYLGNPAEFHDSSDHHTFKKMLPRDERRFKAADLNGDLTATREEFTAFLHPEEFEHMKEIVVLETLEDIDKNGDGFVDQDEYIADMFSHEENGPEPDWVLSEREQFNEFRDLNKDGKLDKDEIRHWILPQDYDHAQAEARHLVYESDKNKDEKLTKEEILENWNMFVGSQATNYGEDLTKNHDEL
# UniProt Q15554: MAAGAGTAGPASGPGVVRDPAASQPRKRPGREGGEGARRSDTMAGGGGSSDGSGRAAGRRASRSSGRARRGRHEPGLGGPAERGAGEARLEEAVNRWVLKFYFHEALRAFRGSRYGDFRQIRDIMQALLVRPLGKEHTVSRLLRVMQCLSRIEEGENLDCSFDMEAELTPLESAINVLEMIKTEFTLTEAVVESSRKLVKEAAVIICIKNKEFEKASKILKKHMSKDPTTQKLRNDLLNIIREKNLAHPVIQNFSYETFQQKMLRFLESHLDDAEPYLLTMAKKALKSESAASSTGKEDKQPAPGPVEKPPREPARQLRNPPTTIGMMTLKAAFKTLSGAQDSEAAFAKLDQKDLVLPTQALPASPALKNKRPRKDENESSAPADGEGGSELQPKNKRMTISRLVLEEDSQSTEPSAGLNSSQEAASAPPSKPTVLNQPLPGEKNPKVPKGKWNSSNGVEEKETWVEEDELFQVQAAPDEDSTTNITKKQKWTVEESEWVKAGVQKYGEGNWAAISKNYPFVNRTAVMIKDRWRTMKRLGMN
# The list shows a part of the results. Small differences around the control level are noise.
# Compound: Cc1nc(Nc2ncc(C(=O)Nc3c(C)cccc3Cl)s2)cc(N2CCN(CCO)CC2)n1 [dasatinib]
# Assay: log2 fold change of tryptic peptide abundance, ligand vs vehicle (limited proteolysis) (log2 ratio); higher = more trypsin-susceptible (destabilized)
# Conditions: ligand concentration: 5 uM; sample: K562 cleared lysate
row,Target,log2 fold change
1,"ATP6AP1 (peptide sequence: SEDVPYTAALTAVRPSR, peptide start residue: 212) (UniProt Q15904)",0.202
2,"CHD9 (peptide sequence: TQTSSFDIQK, peptide start residue: 1589) (UniProt Q3L8U1)",0.578
3,"EZH2 (peptide sequence: KSEKGPVCWR, peptide start residue: 7) (UniProt Q15910)",-0.766
4,"LRRC41 (peptide sequence: CAAALMASR, peptide start residue: 297) (UniProt Q15345)",0.34
5,"R3HDM1 (peptide sequence: QNKYYCDHQR, peptide start residue: 853) (UniProt Q15032)",-1.13
6,"NFIL3 (peptide sequence: SEHWHQK, peptide start residue: 395) (UniProt Q16649)",0.19
7,"PDK1 (peptide sequence: ALSTDSIERLPVYNK, peptide start residue: 391) (UniProt Q15118)",-0.406
8,"UniProt Q3MHD2 (peptide sequence: SQAQQPQK, peptide start residue: 182)",-0.0441
9,"UniProt Q15208 (peptide sequence: VMEEEGLKDEEK, peptide start residue: 51)",-0.474
10,"NDUFA9 (peptide sequence: WLSAEIEDVKPAK, peptide start residue: 361) (UniProt Q16795)",0.685
11,"PPA1 (peptide sequence: DKDFAIDIIK, peptide start residue: 212) (UniProt Q15181)",-0.167
12,"LONRF2 (peptide sequence: CMETGTKR, peptide start residue: 568) (UniProt Q1L5Z9)",-0.517
13,"ATG2A (peptide sequence: NQIVPDAHK, peptide start residue: 1917) (UniProt Q2TAZ0)",0.191
14,"DGUOK (peptide sequence: SPLEGVSSSR, peptide start residue: 21) (UniProt Q16854)",0.018
15,"UniProt Q2M3W8 (peptide sequence: ESPTADSVYK, peptide start residue: 147)",-0.262
16,"TCEAL1 (peptide sequence: KDLFEGRPPMEQPPCGVGK, peptide start residue: 76) (UniProt Q15170)",0.148
17,"RASA2 (peptide sequence: WFCLTSR, peptide start residue: 630) (UniProt Q15283)",-0.562
18,"NEDD8 (peptide sequence: IKERVEEK, peptide start residue: 26) (UniProt Q15843)",-0.714
19,"PSMD5 (peptide sequence: YPIFVEK, peptide start residue: 293) (UniProt Q16401)",-0.194
20,"ADRM1 (peptide sequence: DKKDEEEDMSLD, peptide start residue: 396) (UniProt Q16186)",0.531
21,"TSC22D1 (peptide sequence: SHLMYAVREEVEVLKEQIK, peptide start residue: 699) (UniProt Q15714)",-0.161
22,"RCN1 (peptide sequence: DYDRDKDDK, peptide start residue: 126) (UniProt Q15293)",-0.816
23,"UniProt Q2YD98 (peptide sequence: LVEELTTSGEPR, peptide start residue: 8)",-0.253
24,"PPP2R5B (peptide sequence: CVSSPHFQVAER, peptide start residue: 410) (UniProt Q15173)",0.125
25,"ZNF74 (peptide sequence: NFSLGSKPR, peptide start residue: 635) (UniProt Q16587)",-0.558
26,"IQCB1 (peptide sequence: HIQAPWWK, peptide start residue: 559) (UniProt Q15051)",0.275
27,"JOSD1 (peptide sequence: EVGGAYYNLDSK, peptide start residue: 145) (UniProt Q15040)",0.329
28,"JMJD1C (peptide sequence: SSPSPEVVKPK, peptide start residue: 638) (UniProt Q15652)",-0.148
29,"TERF2 (peptide sequence: RSDTMAGGGGSSDGSGR, peptide start residue: 39) (UniProt Q15554)",-0.474

# 2 records picked at random from the list so far, as already listed:
row,Target,log2 fold change
4,"LRRC41 (peptide sequence: CAAALMASR, peptide start residue: 297) (UniProt Q15345)",0.34
15,"UniProt Q2M3W8 (peptide sequence: ESPTADSVYK, peptide start residue: 147)",-0.262
